The supplement of paper PMC5949888
Most values lie at the floor of the assay. Slopes are relative: functional sequences can read slightly below zero.

What follows are substances tested on Saccharomyces cerevisiae PS128 hsf1 delta, HSF1(1-493) fusion (assay: growth estimate (transactivation domain function in HSF1 fusion, heat-shock survival) (a.u. (slope of normalised read count over time)); higher = stronger growth at 37°C, i.e. more transactivation activity). Conditions: library: random library.

| Substance | growth estimate |
| --- | --- |
| PIHDKFAARRRHDCCLLRTF | < -0.25 |
| GVQC | < -0.25 |
| MITGQIPRCVCGRVGRARIA | < -0.25 |
| CIASLCGLEQRSGR | < -0.25 |
| GVITVALYGRVRRPTVMGK | < -0.25 |
| ATEVGR | < -0.25 |
| CAVSSDQRVAVPSCSVRRVA | < -0.25 |
| KASYNGQRSRPWVQSLYFMV | < -0.25 |
| FLKRGC | < -0.25 |
| GDHG | < -0.25 |
| RPGGTRATSSSLI | < -0.25 |
| GLVEACNFKRMVTSYCYSHM | < -0.25 |
| ITPRDLRGLRGSTSLRNVTF | -0.243 |
| GTPRGHDVRMS | < -0.25 |
| SFINRKRFGPTIRRTA | < -0.25 |
| NSYLGAQPAKARAASGTTPN | < -0.25 |
| CHYTHSKLLIRG | < -0.251 |
| FDHSIPSHKKRTDMISGSII | < -0.25 |
| AVQKFVRPGKGNGIATSLLE | < -0.25 |
| HSRKALRRISMASGEL | < -0.25 |
| RAIFVITQGRV | < -0.25 |
| EQDVIRLSSRNCAHTAQSVA | < -0.25 |
| GAVMLILNLC | < -0.25 |

| Substance | growth estimate |
| --- | --- |
| IPLQMAVLLVSHAPLSDCVV | < -0.25 |
| TDGAYARELSLVFGCFRRSE | < -0.25 |
| SSHSLPWVWGPYHIGQSLFQ | -0.231 |
| ERRIGIRASSWTLGEYNYGS | < -0.25 |
| GIMVPASSSER | < -0.25 |
| GFHAPHYGVSSNYAARKSYP | -0.171 |
| GGLNCVWYVR | < -0.25 |
| ASTAGSESGKLPRSGIHYGS | < -0.25 |
| HCFASSSRRVPVCPARVAWP | < -0.25 |
| AVPQSVPETFTMSDYRR | < -0.25 |
| ETPTTNPTSEHDEAGNLLNR | < -0.25 |
| GNGKVSS | < -0.25 |
| PVWITSPYGIRSGIGGAL | < -0.25 |
| TRYRNCQC | < -0.25 |
| KSGVDRRRPCPK | < -0.25 |
| TQEIIGCY | < -0.25 |
| KRYGVPVICNA | < -0.25 |
| DGGARGRGC | < -0.25 |
| FLRVNDLVEAAQRTVCSAGQ | < -0.25 |
| HAGCRTLFG | < -0.25 |
| RRPEPRVMQGTIFAVLSWPL | -0.243 |
| LKTKGASFGGRGLQEYRLRP | < -0.25 |
| TRSVWQKVRTTTSVVAIGNP | < -0.25 |

| Substance | growth estimate |
| --- | --- |
| HLANQYSRVGRPESTEGKLD | < -0.25 |
| RGW | < -0.25 |
| QGRGWPCISKR | < -0.25 |
| MRTNC | < -0.25 |
| VKYVVIRSRFPAT | < -0.25 |
| GEVEKSRWRPIPNNYPRDTV | < -0.25 |
| KELRGVATRSEGKSALTWHL | < -0.25 |
| VYVELVSAALRNHILGYVLG | < -0.25 |
| RVTQWISHCEGVP | < -0.25 |
| TERYLSIGIGGTPGTDQPSK | < -0.25 |
| TKYRN | < -0.25 |
| PTPYTVQYVTMQLRYAFSLP | < -0.25 |
| VIRGYTVPTDLR | < -0.25 |
| GVPNDRCCVQRIRYNHP | < -0.25 |
| LKLLCEPPGGQRDTFRGARP | < -0.25 |
| GLTSV | < -0.25 |
| LFRVVGGGSNFAEIGTIVCA | < -0.25 |
| CPYLLTHCLCAFEIGWFSTG | < -0.25 |
| KSEAPLR | < -0.25 |
| DCRTGSA | < -0.25 |
| KVARYL | -0.237 |
| SRKSLISGNL | < -0.25 |
| GPARSPKPPFPPASRRVNVL | < -0.25 |

| Substance | growth estimate |
| --- | --- |
| LCKPCGHLLVSQV | < -0.25 |
| STSAGRAASPRIAGET | < -0.25 |
| VGPVSGLSHCEIHDWIWLP | < -0.25 |
| PAEVLPTRKLNISRLVLVGS | < -0.25 |
| PQSIANTELARYSRTFTQ | < -0.25 |
| AVLILAWVL | < -0.25 |
| FTTGEYWSRLSYSNAQQRQR | < -0.25 |
| NQIEFFTRRLA | < -0.25 |
| SWGYRYPTKTRIGLQLEWIG | < -0.25 |
| GKKVSATHALATSCTDCTA | < -0.25 |
| ASGARLPSRR | < -0.25 |
| HYRIGQIPRAHGMCSESRHL | < -0.25 |
| MTIQTDVWDKLAPPRSGQRL | < -0.25 |
| SDWHIW | < -0.25 |
| RRPRRVGGPYYTRRSPIRRE | < -0.25 |
| KGAGDL | < -0.25 |
| LRIIGREYFPERERYGGLSL | < -0.25 |
| ADEDTLRLIVGVE | -0.231 |
| LASWGIVIVINETRLRPLST | < -0.25 |
| RRSSIWGRSLGGPARSTPSF | -0.229 |
| IPTSSGVPADTSFKGRAFSL | < -0.25 |
| TAASPYVTSLPQIRLTTSDP | < -0.25 |
| AIDFV | < -0.25 |

| Substance | growth estimate |
| --- | --- |
| MQWLSTQGSTQRPVHKR | < -0.25 |
| YNLASWDVRQS | < -0.25 |
| WQDDFA | < -0.25 |
| RRTCVQLRFDQTGRGYGAGN | < -0.25 |
| LFS | < -0.25 |
| SFHWKLMPWCLGLVCFQPSA | 0.0112 |
| YLTLAFEVPFMETWGTILPS | < -0.25 |
| CFLKSGRPDACLRVLGTGSG | < -0.25 |
| RFHSRGRR | < -0.25 |
| KVG | < -0.25 |
| GADGCADRHQGHALQQS | -0.243 |
| RIPGGNPRLLYEFNRVLDLF | < -0.25 |
| PNTFQ | < -0.25 |
| PLNEKFIATRDWASVA | < -0.25 |
| SGVWWQQ | < -0.25 |
| MGRIMVVD | < -0.25 |
| VSLKAWGLDIYMEVSITLTR | < -0.25 |
| LQISDCRTTADHLKIGR | < -0.25 |
| RFSVHFGGSQFLLTIRSDAL | < -0.25 |
| TRQR | < -0.25 |
| GYFPDLGMNGDPHQGW | -0.236 |
| VTKLVRSTSGANRETRDRAR | < -0.25 |
| FTKVRGRLRVTCQ | < -0.25 |

| Substance | growth estimate |
| --- | --- |
| CRGD | < -0.25 |
| MHQWGRLRLDVIRPHSKDGA | < -0.25 |
| RRMPKVGARSLIGSKYVL | < -0.25 |
| CIGFA | < -0.25 |
| EADGI | < -0.25 |
| NHVAVVNANISVSESGAASP | < -0.25 |
| DIQRGSQNCRGRGQTRSVKR | < -0.25 |
| LMPAAWRGLVLRFGLRSMSG | < -0.25 |
| VDSSIVLTAFRTLSGGFSYS | < -0.25 |
| RIPLGLLSYSVLNINKTSPD | < -0.25 |
| YFPSGGVIGPDYHVCRLIVS | < -0.25 |
| ITLLGSVMRGTLIGLRFLIY | < -0.25 |
| IPQRRAGANRKERDYIRVVL | < -0.25 |
| DIRSS | < -0.25 |
| YVRDFYLRSESFRDGVGYRL | < -0.25 |
| MLGGRLKEPLAKYRQLRASG | < -0.25 |
| NTPIDFPSAWTCTLITQRV | < -0.25 |
| CVGWKTARPGARVDSSGGVS | < -0.25 |
| GLCCWNV | < -0.25 |
| FRPMPCTEVPRELRACTPHD | < -0.25 |
| ICVPPVEEETREHAALTLVK | < -0.25 |
| RSCFRDGPGEITYAFRTRPE | -0.246 |
| GYRLDWLVY | < -0.25 |

| Substance | growth estimate |
| --- | --- |
| RDRSSRVQVVSPNKTVRRSL | < -0.25 |
| GFWGSCAVHYLGHAIGSWRH | -0.0878 |
| QRWMATTGVLTTIKNILSTR | < -0.25 |
| VRQTCMRHWVRLQSVGNRAW | < -0.25 |
| TKCTYVPPHRILRGIN | < -0.25 |
| RWCLSPHRHRRLHKMEGEPP | < -0.25 |
| KARTGFRVAPKAPVRVGYSA | < -0.25 |
| PGADTARRFANGLVSPCLMC | < -0.25 |
| EDYCRRNTCSSDTSWH | -0.246 |
| REEICILTNCLTIYYMISVQ | < -0.25 |
| FEGQEIRVMI | < -0.25 |
| ARVKLLHAFRRH | < -0.25 |
| MYAREQIVAPFATAGE | < -0.25 |
| VCSTP | < -0.25 |
| YMHNYANMI | < -0.25 |
| TGAYQRIGKRRRTPGTGCKE | < -0.25 |
| TMSVVESQRELI | < -0.25 |
| SGRIRLLWDIFRVTIVLWTR | < -0.25 |

34 entries from above, with bars between the fields:
Substance | growth estimate
EADGI | < -0.25
NHVAVVNANISVSESGAASP | < -0.25
DIQRGSQNCRGRGQTRSVKR | < -0.25
LMPAAWRGLVLRFGLRSMSG | < -0.25
VDSSIVLTAFRTLSGGFSYS | < -0.25
RIPLGLLSYSVLNINKTSPD | < -0.25
YFPSGGVIGPDYHVCRLIVS | < -0.25
ITLLGSVMRGTLIGLRFLIY | < -0.25
DIRSS | < -0.25
YVRDFYLRSESFRDGVGYRL | < -0.25
NTPIDFPSAWTCTLITQRV | < -0.25
CVGWKTARPGARVDSSGGVS | < -0.25
GLCCWNV | < -0.25
FRPMPCTEVPRELRACTPHD | < -0.25
ICVPPVEEETREHAALTLVK | < -0.25
RSCFRDGPGEITYAFRTRPE | -0.246
GYRLDWLVY | < -0.25
RDRSSRVQVVSPNKTVRRSL | < -0.25
GFWGSCAVHYLGHAIGSWRH | -0.0878
QRWMATTGVLTTIKNILSTR | < -0.25
VRQTCMRHWVRLQSVGNRAW | < -0.25
TKCTYVPPHRILRGIN | < -0.25
RWCLSPHRHRRLHKMEGEPP | < -0.25
KARTGFRVAPKAPVRVGYSA | < -0.25
PGADTARRFANGLVSPCLMC | < -0.25
EDYCRRNTCSSDTSWH | -0.246
REEICILTNCLTIYYMISVQ | < -0.25
FEGQEIRVMI | < -0.25
ARVKLLHAFRRH | < -0.25
MYAREQIVAPFATAGE | < -0.25
YMHNYANMI | < -0.25
TGAYQRIGKRRRTPGTGCKE | < -0.25
TMSVVESQRELI | < -0.25
SGRIRLLWDIFRVTIVLWTR | < -0.25
